Test results as given in PubChem BioAssay AID1671190 (National Center for Advancing Translational Sciences (NCATS), 2021).
Values joined by “and” are separate entries in the source; they are usually repeats but may differ in a detail not shown here. Equal entries are not always repeated. Out of some 580,000 compounds screened, about 6,100 (1.1%) were called active. Inconclusive results, whose numbers are uncertain, are shown with a selection of clear calls. Calls follow the shape of the dose curve; as a rule, active = well fitted inhibition curve with a large enough effect; inconclusive = small, poorly fitted or top-dose-only effect, or another doubt; inactive = no such curve, though single readings can be large or run the other way. A potency beside an inconclusive call is a rough fit, not a confirmed value.

Protein sequences, listed by entry. Tags and fused reporters are not part of them.
UniProt P18054, whole entry, looked up: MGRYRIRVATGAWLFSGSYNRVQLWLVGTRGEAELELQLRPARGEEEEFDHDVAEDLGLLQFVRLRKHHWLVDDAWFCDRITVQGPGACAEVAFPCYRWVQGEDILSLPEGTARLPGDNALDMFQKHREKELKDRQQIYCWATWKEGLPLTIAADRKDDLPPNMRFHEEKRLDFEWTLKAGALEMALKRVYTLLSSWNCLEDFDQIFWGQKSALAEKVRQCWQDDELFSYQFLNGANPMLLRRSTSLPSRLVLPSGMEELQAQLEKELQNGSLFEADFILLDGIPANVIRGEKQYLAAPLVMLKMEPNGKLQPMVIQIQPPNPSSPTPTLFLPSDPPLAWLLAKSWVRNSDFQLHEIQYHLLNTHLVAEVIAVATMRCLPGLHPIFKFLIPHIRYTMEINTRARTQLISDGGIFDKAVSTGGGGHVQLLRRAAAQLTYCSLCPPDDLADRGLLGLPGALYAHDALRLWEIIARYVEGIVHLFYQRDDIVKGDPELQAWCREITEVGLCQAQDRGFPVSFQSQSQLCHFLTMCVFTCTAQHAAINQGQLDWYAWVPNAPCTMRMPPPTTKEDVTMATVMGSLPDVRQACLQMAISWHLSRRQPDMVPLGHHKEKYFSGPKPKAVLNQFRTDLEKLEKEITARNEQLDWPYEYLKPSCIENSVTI

Molecular target: Polyunsaturated fatty acid lipoxygenase ALOX12 (Homo sapiens) (UniProt P18054)
Experiment: Primary qHTS assay for inhibitors of human arachidonate 12S-lipoxygenase (ALOX12): Round 2
Settings: purified 12hLO, xylenol orange hydroperoxide absorbance; series mostly up to 108 µM
Outline: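 Purified human 12hLO at 150 nM in 25 mM Hepes, 0.01% Triton X-100, pH 7.0, preincubated 15 min at room temperature with compound. Reaction started with 40 uM arachidonic acid, 30 min at room temperature. Hydroperoxide measured by Fe-xylenol orange, 573/405 nm absorbance ratio.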
Potency is read from the fitted curve at half-maximal effect.

SMILES | Potency
COc1ccc(OC)c(/C=C/C(=O)c2cc3ccccc3o2)c1 | inactive
CCc1nnc(Cn2cnc3scc(-c4ccccc4)c3c2=O)o1 | inactive
COc1ccc(S(=O)(=O)N2CCOC23CCN(S(=O)(=O)c2cccs2)CC3)cc1 | inactive
CC(CN1CCOCC1)NS(=O)(=O)c1cc(F)cc(F)c1 (stereo not given) | inactive
Cc1ccc(C)c(OCCn2cc(C(=O)c3ccco3)c3ccccc32)c1 | inactive
O=S(=O)(c1cccc(Cl)c1)N1CN(CC2CCCO2)c2nc3ccccc3nc21 (stereo not given) | inconclusive: 44.7 µM [inhibitor, partial curve, poor fit]
COc1cccc(CNC(=O)c2cc3c(s2)-c2c(C)cccc2OC3)c1 | inconclusive: 50.1 µM [inhibitor, partial curve, poor fit]
Cc1cccc(C)c1OCC(O)Cn1nnc2ccccc21 (stereo not given) | inconclusive: 35.5 µM [inhibitor, single point]
OC(CSc1ccccc1)CN1CCN(c2cccc(Cl)c2)CC1 (stereo not given) | inconclusive: 50.1 µM [inhibitor, partial curve, poor fit]
O=C(Oc1c(Cl)cc(Cl)c2cccnc12)N1CCCCC1 | inconclusive: 70.8 µM [inhibitor, partial curve, poor fit]
Cc1ccc2nc3n(c(=O)c2c1)-c1ncccc1C(=O)NC3Cc1ccccc1 (stereo not given) | inconclusive: 44.7 µM [inhibitor, partial curve, poor fit]
CCCCc1ccc(C(=O)COC(=O)c2cc(S(C)(=O)=O)ccc2C)cc1 | inconclusive: 28.2 µM [inhibitor, partial curve, poor fit]
O=C(NC(=S)NCc1ccc(F)cc1)c1ccccc1 | active: 15.8 µM
Oc1ccc(C[C@H]2CNC(=S)N2CC2CCCN2C[C@H](Cc2ccccc2)N2C[C@H](Cc3ccc(O)cc3)N(CCc3ccccc3)C2=S)cc1 (stereo not given in full) | inconclusive: 15.8 µM [inhibitor, partial curve, poor fit]
COc1cc(CN2CCN(c3cc(C)ccc3C)CC2)cc([N+](=O)[O-])c1O | inconclusive: 28.2 µM [inhibitor, partial curve, poor fit]
O=C(NC(=S)N1CCOCC1)C12CCC3CC(CC(C3)C1)C2 | inactive
CCC(=O)Nc1cccc(NC(=S)NC(=O)c2cccc(C)c2)c1 | active: 35.5 µM
Cc1ccc(S(=O)(=O)N2[C@@H](c3ccc(Cl)cc3)C(C(=O)O)=C[C@H]2C(C)(C)C)cc1 | inconclusive: 79.4 µM [inhibitor, single point]
COc1ccc(/C=C2\SC(=S)N(CC3CCCO3)C2=O)cc1 (stereo not given) | inconclusive: 44.7 µM [inhibitor, partial curve, poor fit]
O=C(Cc1ccccc1)NC1(O)C(=O)c2ccccc2C1=O | inconclusive: 44.7 µM [inhibitor, partial curve, poor fit]
Cc1ccc(CCc2nnc(SCC(=O)Nc3ccccc3Cl)n2-c2ccccc2)o1 | inactive
O=C(NC1CCN(Cc2ccccc2)CC1)c1cccc(S(=O)(=O)Nc2cc(C(F)(F)F)ccc2Cl)c1 | inconclusive: 79.4 µM [inhibitor, partial curve, poor fit]

Quoted at random: 3 records from the list, in no set order.
SMILES | Potency
O=C(NC(=S)NCc1ccc(F)cc1)c1ccccc1 | active: 15.8 µM
O=S(=O)(c1cccc(Cl)c1)N1CN(CC2CCCO2)c2nc3ccccc3nc21 (stereo not given) | inconclusive: 44.7 µM [inhibitor, partial curve, poor fit]
CCCCc1ccc(C(=O)COC(=O)c2cc(S(C)(=O)=O)ccc2C)cc1 | inconclusive: 28.2 µM [inhibitor, partial curve, poor fit]

Further records

SMILES | Potency
CN(C(=O)c1ccc(NC(=O)Cc2cccc(NC(=O)C3CCCN(C(=O)CCc4ccccc4)C3)c2)cc1)C1CCCC1 (stereo not given) | inactive
Cc1ccc(NS(=O)(=O)c2ccc3nc(-c4ccccc4)[nH]c3c2)c(Cl)c1 | inconclusive: 17.8 µM [inhibitor, partial curve, poor fit]
CCN1CCN(C(c2ccccc2F)c2nnnn2Cc2ccc3c(c2)OCO3)CC1 (stereo not given) | inconclusive: 44.7 µM [inhibitor, partial curve, poor fit]
COc1ccc(C(=O)NCc2nnc3ccc(-c4ccc(C)c(C)c4)nn23)cc1F | inconclusive: 89.1 µM [inhibitor, single point]
COc1ccc(-c2nc(-c3ccccc3)c(-c3cc([N+](=O)[O-])ccc3C)[nH]2)cc1O | inconclusive: 79.4 µM [inhibitor, single point]
CCc1ccccc1OC[C@@H](O)CN[C@H]1CCCc2ccccc21 | inconclusive: 44.7 µM [inhibitor, partial curve, poor fit] and inconclusive: 50.1 µM [inhibitor, partial curve, poor fit]
CCOC(=O)c1ccc(/[N+]([O-])=C/c2ccccc2)cc1 | inconclusive: 44.7 µM [inhibitor, partial curve, poor fit]
COc1ccc(Cn2c(C(=O)O)c(CNCCc3cccs3)c3ccc(C)cc32)cc1 | inconclusive: 89.1 µM [inhibitor, single point]
COc1ccc(/C=N/NC(=O)c2ccc(Cl)c(S(N)(=O)=O)c2)cc1OCC(N)=O | inactive
CN(C)/C=C1\C(=O)N(c2ccc([N+](=O)[O-])cc2)N=C1c1ccccc1 | inconclusive: 22.4 µM [inhibitor, full curve, poor fit]
COc1ccc(CSc2nnc(NC(C)=O)s2)cc1[N+](=O)[O-] | inconclusive: 89.1 µM [inhibitor, partial curve, poor fit]
O=C(COc1ccc(Cl)cc1)Nc1c(NC2CCCC2)c2ccccc2oc1=O | inconclusive: 44.7 µM [inhibitor, partial curve, poor fit]
O=C(O)/C(=C/c1ccncc1)NC(=O)c1ccccc1 | inconclusive: 112 µM [inhibitor, single point]
CC1CCC(N2CCN(S(C)(=O)=O)CC2)CC1 (stereo not given) | inconclusive: 0.891 µM [inhibitor, full curve, poor fit]
C=CCO[C@@H]1CCN2C(=O)c3cc(-c4ccc(OC)cc4)ccc3NC(=O)[C@H]12 | inconclusive: 11.2 µM [inhibitor, full curve]
O=C(CNC(=O)c1ccccc1)N/N=C/C=C/c1ccccc1 | inactive
Cc1oc2ncn(CC(C)C)c(=O)c2c1C(=O)Nc1cc(F)ccc1F | inactive
NNc1nc(-c2ccccc2)cc(-c2ccc(Br)cc2)n1 | inconclusive: 70.8 µM [inhibitor, partial curve, poor fit]
CCOc1ccc2c(c1)nc(C)n2C | inconclusive: 0.141 µM [inhibitor, full curve, poor fit]
CC1(C)CN(C(=O)c2cn(CCN3CCNCC3)nn2)C[C@]1(C)O | inconclusive: 17.8 µM [inhibitor, full curve]
COc1ccc(Cc2c(-c3ccco3)nc3c(C)cc(Br)cn23)c(C)c1 | inconclusive: 44.7 µM [inhibitor, partial curve, poor fit]
CSc1ccc(/C=C/C(=O)Nc2ccc(I)cc2C)cc1 | inconclusive: 126 µM [inhibitor, single point]

Sorted by number of heavy atoms (rising): 3 of the compounds above
SMILES | Potency
COc1ccc(CSc2nnc(NC(C)=O)s2)cc1[N+](=O)[O-] | inconclusive: 89.1 µM [inhibitor, partial curve, poor fit]
Cc1oc2ncn(CC(C)C)c(=O)c2c1C(=O)Nc1cc(F)ccc1F | inactive
COc1ccc(Cn2c(C(=O)O)c(CNCCc3cccs3)c3ccc(C)cc32)cc1 | inconclusive: 89.1 µM [inhibitor, single point]

(cont.)

SMILES | Potency
Cc1cccc(NC(=O)CC(=O)Nc2cccc(C)c2)c1 | inactive
C=CC[C@@H](CC(=O)N[C@@H](CO)Cc1ccccc1)C(=O)NCCOC(=O)[C@@H](CC=C)Cc1ccc(F)cc1 | inactive
CC(C)NC(=O)c1cc(C2CCCCN2C(=O)OCCF)on1 (stereo not given) | inconclusive: 158 µM [inhibitor, partial curve, poor fit]
CCCCn1nc2cc(C(=O)NCC3CC3)ccc2c1OCC | inconclusive: 126 µM [inhibitor, partial curve, poor fit]
COc1ccc(NC(=O)N2C[C@@H]3C[C@H](C2)c2c(NC(=O)Nc4ccccc4)ccc(=O)n2C3)cc1 | inconclusive: 15.8 µM [inhibitor, full curve]
Cc1c(-c2ccccc2)c(=O)oc2cc(OCC(=O)OC(C)(C)C)ccc12 | inactive
Cc1ccc(C(=O)OCc2ccc(C#N)cc2)cc1C | inactive
Cc1nc2ccccc2c2c(N)c3ccccc3n12 | inactive
Cn1c(SCC(=O)Nc2cc(Cl)cc(Cl)c2)nnc1-c1ccc2nonc2c1 | inconclusive: 0.282 µM [inhibitor, full curve, poor fit]
O=C(Nc1ccc(Cl)cc1)N1CCn2c(nn(-c3ccc([N+](=O)[O-])cc3)c2=O)C1 | inconclusive: 6.31 µM [inhibitor, full curve]
COC[C@@H]1CN(S(=O)(=O)c2cccc(C)c2)C[C@H]1c1nc(C)no1 | active: 44.7 µM
O=C(NN1CCCC1)NS(=O)(=O)c1ccc(Cl)cc1 | inconclusive: 10.2 µM [inhibitor, single point]
Cc1ccc(Sc2ccc(NC(=O)CCl)cc2)cc1C | inconclusive: 50.1 µM [inhibitor, partial curve, poor fit]
O=C(O)c1ccc(NNC(=S)Nc2cc(C(F)(F)F)ccc2Cl)cc1 | inconclusive: 20 µM [inhibitor, partial curve, poor fit]
CC(C)Nc1oc(-c2cccc3ccccc23)nc1C#N | inconclusive: 50.1 µM [inhibitor, partial curve, poor fit]
CC(C)c1cc(NCC2CCCCCN2)nc(N)n1 (stereo not given) | inactive
CN1CCOc2c(C(=O)NCCc3ccccc3)cc(N3CCOCC3)cc21 | inconclusive: 8.91 µM [inhibitor, full curve, poor fit]
CCc1c(O)nc(SCC(=O)Nc2ccc(Br)cc2)n(-c2ccc(C)cc2)c1=O | inconclusive: 44.7 µM [inhibitor, partial curve, poor fit]
O=C(c1cccs1)N1CCN(c2ccc(F)cc2)CC1 | inactive
O=C(O)C1C2CCC(C2)C1C(=O)Nc1ccccc1 (stereo not given) | inconclusive: 141 µM [inhibitor, single point]
COc1ccc(S(=O)(=O)n2ccnc2)cc1C(C)(C)C | inconclusive: 44.7 µM [inhibitor, partial curve, poor fit]
